According to the supplement of paper PMC11732987, “Enantioselective OTUD7B fragment discovery through chemoproteomics screening and high-throughput optimisation” (Communications Chemistry, 2025):
The other results are listed elsewhere or left out. The data scatter; read single values as rough.

Chains of the proteins cited; added tags and fusions are not shown. Lines headed by an entry give the natural chain unless they say otherwise; changes in a name come on top. Residues count along the entry.
UniProt Q6IBW4: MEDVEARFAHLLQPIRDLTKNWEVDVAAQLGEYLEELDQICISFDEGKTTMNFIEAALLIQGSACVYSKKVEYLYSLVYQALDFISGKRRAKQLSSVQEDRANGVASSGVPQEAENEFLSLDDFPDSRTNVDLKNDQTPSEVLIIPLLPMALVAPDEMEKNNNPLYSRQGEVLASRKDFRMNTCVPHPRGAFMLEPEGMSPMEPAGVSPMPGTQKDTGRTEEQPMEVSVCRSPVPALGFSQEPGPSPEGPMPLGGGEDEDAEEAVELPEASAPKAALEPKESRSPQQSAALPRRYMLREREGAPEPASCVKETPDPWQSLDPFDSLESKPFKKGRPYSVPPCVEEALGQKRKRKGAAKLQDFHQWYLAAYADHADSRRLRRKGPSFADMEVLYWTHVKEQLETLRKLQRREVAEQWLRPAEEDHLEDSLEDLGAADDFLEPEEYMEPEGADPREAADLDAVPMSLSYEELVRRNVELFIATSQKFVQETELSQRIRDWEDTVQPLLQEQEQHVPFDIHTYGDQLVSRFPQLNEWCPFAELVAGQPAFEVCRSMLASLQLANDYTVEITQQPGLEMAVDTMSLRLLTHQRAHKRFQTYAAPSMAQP
UniProt Q96D46: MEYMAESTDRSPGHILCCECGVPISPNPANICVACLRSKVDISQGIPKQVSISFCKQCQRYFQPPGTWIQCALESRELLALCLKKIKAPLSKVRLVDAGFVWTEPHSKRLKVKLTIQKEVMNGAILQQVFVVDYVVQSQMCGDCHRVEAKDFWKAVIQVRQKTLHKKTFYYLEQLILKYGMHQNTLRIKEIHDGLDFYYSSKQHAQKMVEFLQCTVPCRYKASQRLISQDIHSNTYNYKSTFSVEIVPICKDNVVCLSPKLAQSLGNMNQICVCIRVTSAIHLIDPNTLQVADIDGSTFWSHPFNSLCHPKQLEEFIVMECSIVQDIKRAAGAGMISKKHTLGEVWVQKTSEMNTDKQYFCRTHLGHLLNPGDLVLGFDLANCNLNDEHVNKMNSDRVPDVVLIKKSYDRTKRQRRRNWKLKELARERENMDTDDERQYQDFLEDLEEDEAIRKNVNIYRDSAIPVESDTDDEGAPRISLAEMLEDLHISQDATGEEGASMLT
UniProt Q8TD19: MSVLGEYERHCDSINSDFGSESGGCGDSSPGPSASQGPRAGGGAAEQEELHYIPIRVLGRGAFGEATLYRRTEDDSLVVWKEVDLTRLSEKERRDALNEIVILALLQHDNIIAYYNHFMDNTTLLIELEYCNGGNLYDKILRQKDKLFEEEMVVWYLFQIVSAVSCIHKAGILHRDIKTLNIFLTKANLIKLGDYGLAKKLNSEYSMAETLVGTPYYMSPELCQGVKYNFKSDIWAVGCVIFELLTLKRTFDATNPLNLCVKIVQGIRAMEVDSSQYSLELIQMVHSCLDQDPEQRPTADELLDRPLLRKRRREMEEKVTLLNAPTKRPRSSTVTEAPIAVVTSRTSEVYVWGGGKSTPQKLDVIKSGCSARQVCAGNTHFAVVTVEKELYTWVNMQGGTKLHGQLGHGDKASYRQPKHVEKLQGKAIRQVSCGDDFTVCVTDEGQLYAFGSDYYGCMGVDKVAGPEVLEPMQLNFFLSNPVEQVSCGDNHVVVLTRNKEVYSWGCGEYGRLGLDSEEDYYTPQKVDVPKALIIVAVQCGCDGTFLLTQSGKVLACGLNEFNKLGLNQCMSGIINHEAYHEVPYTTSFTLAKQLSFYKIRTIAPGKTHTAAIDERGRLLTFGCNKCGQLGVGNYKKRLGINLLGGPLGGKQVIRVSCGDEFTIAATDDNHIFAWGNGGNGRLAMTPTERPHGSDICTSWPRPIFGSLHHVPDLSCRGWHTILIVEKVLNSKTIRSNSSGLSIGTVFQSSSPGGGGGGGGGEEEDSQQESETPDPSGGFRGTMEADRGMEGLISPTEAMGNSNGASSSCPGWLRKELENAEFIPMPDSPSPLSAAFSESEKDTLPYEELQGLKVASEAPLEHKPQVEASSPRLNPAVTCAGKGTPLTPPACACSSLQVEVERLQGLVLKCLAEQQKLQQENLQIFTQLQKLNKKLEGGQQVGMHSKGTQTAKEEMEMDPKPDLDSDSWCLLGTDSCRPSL
UniProt Q8NCF5, 231-263: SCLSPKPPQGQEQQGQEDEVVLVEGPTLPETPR
UniProt O95299, 85-116: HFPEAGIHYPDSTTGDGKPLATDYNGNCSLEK
UniProt O95299, whole entry, looked up: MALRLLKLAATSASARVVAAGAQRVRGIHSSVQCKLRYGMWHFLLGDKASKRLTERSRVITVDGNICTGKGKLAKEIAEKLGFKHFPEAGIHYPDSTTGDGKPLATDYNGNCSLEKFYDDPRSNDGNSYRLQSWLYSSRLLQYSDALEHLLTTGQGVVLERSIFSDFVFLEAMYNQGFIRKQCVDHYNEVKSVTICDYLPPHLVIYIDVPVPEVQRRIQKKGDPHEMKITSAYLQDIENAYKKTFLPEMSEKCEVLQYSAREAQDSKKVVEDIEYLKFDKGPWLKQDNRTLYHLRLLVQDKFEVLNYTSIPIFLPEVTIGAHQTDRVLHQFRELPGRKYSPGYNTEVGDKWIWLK
UniProt P42695: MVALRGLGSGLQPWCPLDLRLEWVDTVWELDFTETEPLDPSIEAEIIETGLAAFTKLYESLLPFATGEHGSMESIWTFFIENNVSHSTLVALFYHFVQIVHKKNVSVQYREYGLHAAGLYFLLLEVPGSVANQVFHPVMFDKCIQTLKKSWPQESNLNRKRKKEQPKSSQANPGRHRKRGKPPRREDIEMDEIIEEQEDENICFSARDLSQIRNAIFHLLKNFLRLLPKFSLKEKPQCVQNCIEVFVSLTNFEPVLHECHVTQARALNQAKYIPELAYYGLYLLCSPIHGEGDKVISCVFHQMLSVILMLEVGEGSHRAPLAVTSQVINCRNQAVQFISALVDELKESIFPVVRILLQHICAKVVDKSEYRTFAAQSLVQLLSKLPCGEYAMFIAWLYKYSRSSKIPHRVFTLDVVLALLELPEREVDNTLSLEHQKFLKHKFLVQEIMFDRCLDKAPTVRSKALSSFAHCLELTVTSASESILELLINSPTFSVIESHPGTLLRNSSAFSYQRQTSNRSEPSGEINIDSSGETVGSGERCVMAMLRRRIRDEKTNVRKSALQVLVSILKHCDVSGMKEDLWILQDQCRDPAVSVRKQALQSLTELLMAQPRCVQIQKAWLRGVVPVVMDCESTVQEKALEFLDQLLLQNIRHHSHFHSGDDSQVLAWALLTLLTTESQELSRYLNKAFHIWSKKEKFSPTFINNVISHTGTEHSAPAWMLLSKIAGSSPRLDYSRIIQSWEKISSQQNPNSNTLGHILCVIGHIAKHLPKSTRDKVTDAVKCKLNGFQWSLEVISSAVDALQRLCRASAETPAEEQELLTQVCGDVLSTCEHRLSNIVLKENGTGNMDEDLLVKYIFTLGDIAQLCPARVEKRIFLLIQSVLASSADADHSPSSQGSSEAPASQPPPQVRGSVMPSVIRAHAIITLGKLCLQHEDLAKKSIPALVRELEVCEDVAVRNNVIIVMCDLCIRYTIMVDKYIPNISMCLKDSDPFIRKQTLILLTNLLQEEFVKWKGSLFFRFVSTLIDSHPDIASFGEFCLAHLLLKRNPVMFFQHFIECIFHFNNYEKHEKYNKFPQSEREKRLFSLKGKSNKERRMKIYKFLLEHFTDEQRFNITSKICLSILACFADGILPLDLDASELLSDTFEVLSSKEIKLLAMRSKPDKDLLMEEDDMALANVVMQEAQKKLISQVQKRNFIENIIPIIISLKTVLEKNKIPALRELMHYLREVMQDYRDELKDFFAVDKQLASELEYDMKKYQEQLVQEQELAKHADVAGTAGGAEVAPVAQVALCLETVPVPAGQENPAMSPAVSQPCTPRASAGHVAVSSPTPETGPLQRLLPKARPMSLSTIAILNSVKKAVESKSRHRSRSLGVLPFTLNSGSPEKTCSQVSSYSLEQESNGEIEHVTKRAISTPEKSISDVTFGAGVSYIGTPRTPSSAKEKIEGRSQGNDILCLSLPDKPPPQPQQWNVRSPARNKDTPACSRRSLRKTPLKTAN
UniProt Q8WUY8, 103-124: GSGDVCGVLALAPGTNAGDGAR
UniProt Q96TA1: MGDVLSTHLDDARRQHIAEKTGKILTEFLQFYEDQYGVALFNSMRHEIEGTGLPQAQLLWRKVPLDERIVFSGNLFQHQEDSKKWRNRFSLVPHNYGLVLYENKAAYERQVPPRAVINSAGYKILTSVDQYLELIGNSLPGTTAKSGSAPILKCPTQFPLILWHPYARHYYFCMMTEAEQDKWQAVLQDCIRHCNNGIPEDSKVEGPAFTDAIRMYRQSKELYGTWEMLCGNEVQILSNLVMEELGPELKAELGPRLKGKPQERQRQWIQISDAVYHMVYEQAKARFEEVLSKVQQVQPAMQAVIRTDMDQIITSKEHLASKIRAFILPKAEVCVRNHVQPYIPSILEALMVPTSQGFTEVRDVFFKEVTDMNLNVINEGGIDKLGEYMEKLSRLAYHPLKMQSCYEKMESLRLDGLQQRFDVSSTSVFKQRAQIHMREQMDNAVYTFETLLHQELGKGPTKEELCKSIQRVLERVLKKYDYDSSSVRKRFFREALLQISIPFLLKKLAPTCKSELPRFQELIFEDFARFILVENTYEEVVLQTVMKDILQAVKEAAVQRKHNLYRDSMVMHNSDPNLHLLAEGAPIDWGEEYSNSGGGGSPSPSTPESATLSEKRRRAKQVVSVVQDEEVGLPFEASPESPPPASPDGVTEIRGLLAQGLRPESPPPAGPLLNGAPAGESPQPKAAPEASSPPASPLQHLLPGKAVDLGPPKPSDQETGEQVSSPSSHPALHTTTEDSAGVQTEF
UniProt Q9NWW6: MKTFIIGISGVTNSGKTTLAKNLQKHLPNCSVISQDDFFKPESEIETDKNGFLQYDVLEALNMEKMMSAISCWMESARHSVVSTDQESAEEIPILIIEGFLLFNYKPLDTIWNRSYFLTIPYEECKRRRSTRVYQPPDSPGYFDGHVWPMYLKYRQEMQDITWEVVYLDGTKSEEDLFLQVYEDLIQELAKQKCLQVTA
UniProt O14777, 518-537: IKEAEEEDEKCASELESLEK
UniProt Q13772: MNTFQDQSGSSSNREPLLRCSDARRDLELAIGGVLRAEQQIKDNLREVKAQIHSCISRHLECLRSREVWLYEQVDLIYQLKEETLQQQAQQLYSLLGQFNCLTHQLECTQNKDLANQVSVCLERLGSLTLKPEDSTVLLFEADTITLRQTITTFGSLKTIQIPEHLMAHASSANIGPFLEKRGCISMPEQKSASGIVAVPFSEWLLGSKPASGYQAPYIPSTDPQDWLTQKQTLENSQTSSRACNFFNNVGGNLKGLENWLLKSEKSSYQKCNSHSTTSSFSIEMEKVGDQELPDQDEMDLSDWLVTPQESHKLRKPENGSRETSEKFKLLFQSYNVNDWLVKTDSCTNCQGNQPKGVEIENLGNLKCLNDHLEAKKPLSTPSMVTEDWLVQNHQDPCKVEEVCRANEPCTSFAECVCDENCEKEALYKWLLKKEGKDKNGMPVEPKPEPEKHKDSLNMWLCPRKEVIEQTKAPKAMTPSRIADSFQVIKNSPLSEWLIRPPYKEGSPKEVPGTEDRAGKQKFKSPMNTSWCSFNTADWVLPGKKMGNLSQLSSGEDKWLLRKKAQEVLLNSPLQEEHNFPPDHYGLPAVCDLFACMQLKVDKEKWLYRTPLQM
UniProt O60934, 483-502: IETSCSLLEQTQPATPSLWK
UniProt Q14596: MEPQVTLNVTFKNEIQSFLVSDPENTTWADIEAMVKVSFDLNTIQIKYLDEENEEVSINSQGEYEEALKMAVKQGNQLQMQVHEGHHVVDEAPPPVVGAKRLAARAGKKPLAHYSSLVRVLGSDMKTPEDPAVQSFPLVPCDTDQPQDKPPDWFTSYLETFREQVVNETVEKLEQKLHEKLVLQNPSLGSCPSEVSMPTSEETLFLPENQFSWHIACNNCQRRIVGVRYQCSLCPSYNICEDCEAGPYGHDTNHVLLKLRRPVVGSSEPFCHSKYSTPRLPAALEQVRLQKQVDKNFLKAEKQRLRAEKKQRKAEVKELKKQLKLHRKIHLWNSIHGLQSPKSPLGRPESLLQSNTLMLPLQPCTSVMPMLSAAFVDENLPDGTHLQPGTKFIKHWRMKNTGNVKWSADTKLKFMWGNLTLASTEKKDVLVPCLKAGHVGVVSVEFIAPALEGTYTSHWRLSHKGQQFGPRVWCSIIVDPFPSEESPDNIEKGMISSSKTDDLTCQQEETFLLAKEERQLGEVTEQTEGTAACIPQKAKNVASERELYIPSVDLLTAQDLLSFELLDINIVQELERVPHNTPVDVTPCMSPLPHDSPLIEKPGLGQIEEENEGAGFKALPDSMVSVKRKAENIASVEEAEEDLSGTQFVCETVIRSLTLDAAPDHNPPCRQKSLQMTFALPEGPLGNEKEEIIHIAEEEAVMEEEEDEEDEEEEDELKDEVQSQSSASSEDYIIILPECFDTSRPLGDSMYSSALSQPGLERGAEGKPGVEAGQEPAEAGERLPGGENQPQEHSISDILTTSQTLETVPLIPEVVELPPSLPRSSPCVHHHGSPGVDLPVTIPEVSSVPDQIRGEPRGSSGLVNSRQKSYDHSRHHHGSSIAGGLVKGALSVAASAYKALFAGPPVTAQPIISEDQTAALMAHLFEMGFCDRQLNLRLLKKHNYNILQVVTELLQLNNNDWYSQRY

What was measured:
[1] = compound: ClCC(=O)N[C@@H]1CCCc2ccccc12; assay: log2 mean competition ratio of IA-DTB cysteine labelling (DMSO/compound) (log2 ratio); higher = stronger cysteine engagement by compound; details: treatment time: 4 h, cell line lysate: HEK293T
Description: (§1)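 IA-DTB competitive cysteine chemoproteomics in HEK293T RIPA lysate. Lysates were treated with compound 29 or 30 at 50 or 200 µM for 4 h, then IA-DTB (500 µM, 1 h), trypsin-digested, NeutrAvidin-enriched and analysed by diaPASEF. Competition ratio = intensity DMSO / intensity compound (n=4 treated, n=64 DMSO); binding: mean log2 CR ≥ 1 and p ≤ 0.05 plus QC filters. Target is the cysteine site.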

[2] = compound: ClCC(=O)N[C@H]1CCCc2ccccc12; assay: as above; details: treatment time: 4 h, cell line lysate: HEK293T
Description: as §1

Target	log2 mean competition ratio ([1]; 50 µM)	log2 mean competition ratio ([1]; 200 µM)	log2 mean competition ratio ([2]; 50 µM)	log2 mean competition ratio ([2]; 200 µM)
NCAPG2 C1047 (UniProt Q86XI2)	-0.0634	0.04	-0.122	-0.279
NEMF C663 (UniProt O60524)	-0.366	-0.146	-0.213	0.214
NCAPH2 C184 (UniProt Q6IBW4)	0.214	-0.179	0.0829	-0.12
NMD3 C55 (UniProt Q96D46)	0.122	0.244	0.432	0.197
NAT10 C517 (UniProt Q9H0A0)	-0.0329	-0.416	0.245	-0.344
NEK9 C260 (UniProt Q8TD19)	-0.237	0.131	-0.712	0.312
NIT2 C153 (UniProt Q9NQR4)	0.0977	0.0331	-0.0591	0.378
NCAPH2 C309 (UniProt Q6IBW4)	-0.191	0.153	-0.037	0.0412
NFATC2IP C232 (UniProt Q8NCF5)	-0.228	-0.345	-0.552	-0.167
NDUFA10 C112 (UniProt O95299)	-0.0416	0.308	0.0297	0.104
NCOR1 C987 (UniProt O75376)	-0.237	0.584	0.0266	0.642
NCK1 C340 (UniProt P16333)	-0.0981	-0.223	0.218	-0.285
NCDN C351 (UniProt Q9UBB6)	0.0454	-0.163	0.32	-0.423
NF1 C2808 (UniProt P21359)	0.0521	-0.286	0.0812	-0.231
NCAPD3 C15 (UniProt P42695)	0.596	0.218	-0.0208	-0.181
NDUFS1 C75 (UniProt P28331)	-0.0611	0.00848	0.0225	0.0435
NCKIPSD C138 (UniProt Q9NZQ3)	-0.304	0.289	-0.0915	0.335
NAT14 C108 (UniProt Q8WUY8)	-0.163	0.0532	0.255	0.0994
NDRG1 C289 (UniProt Q92597)	-0.489	-0.94	-0.177	-0.489
NIFK C237 (UniProt Q9BYG3)	-0.242	0.319	-0.098	0.254
NCAPD3 C1484 (UniProt P42695)	-0.0183	0.305	-0.0137	0.366
NEK4 C664 (UniProt P51957)	-0.133	0.17	-0.115	0.0764
NEK9 C626 (UniProt Q8TD19)	0.037	0.0117	0.0839	-0.0106
NIBAN2 C466 (UniProt Q96TA1)	0.0336	0.135	-0.157	0.0609
NKRF C246 (UniProt O15226)	0.41	0.275	0.287	0.436
NCDN C98 (UniProt Q9UBB6)	-0.0737	0.0433	-0.252	0.0935

Target	log2 mean competition ratio ([1]; 50 µM)	log2 mean competition ratio ([1]; 200 µM)	log2 mean competition ratio ([2]; 50 µM)	log2 mean competition ratio ([2]; 200 µM)
NCAPD3 C952 (UniProt P42695)	-0.115	0.0722	-0.381	-0.045
NLRX1 C481 (UniProt Q86UT6)	-0.0422	-0.0932	-0.376	-0.0962
NKIRAS2 C122 (UniProt Q9NYR9)	-0.06	0.0791	-0.228	0.0533
NISCH C848 (UniProt Q9Y2I1)	0.00315	-0.112	0.13	0.0176
NMRK1 C125 (UniProt Q9NWW6)	-0.145	-0.114	-0.0485	-0.0241
NLRX1 C779 (UniProt Q86UT6)	0.0373	0.158	-0.0538	0.0612
NBAS C406 (UniProt A2RRP1)	0.171	-0.217	-0.0292	-0.153
NKRF C37 (UniProt O15226)	0.389	-0.265	0.339	-0.32
NFX1 C32 (UniProt Q12986)	-0.2	0.0664	-0.0994	0.103
NDC1 C9 (UniProt Q9BTX1)	0.465	0.113	0.292	0.0627
NOP58 C439 (UniProt Q9Y2X3)	-0.146	-0.11	0.15	-0.0107
NIPBL C2557 (UniProt Q6KC79)	-0.139	-0.0445	-0.0561	-0.0555
NEK9 C623 (UniProt Q8TD19)	0.632	0.534	0.676	0.426
NDC80 C528 (UniProt O14777)	-0.56	-0.0935	-0.474	-0.244
NCL C543	-0.0205	-0.207	0.00663	-0.172
NCOA4 C184 (UniProt Q13772)	-0.0721	-0.0991	0.252	0.144
NBN C487 (UniProt O60934)	0.349	0.327	0.164	0.293
NDUFA10 C183 (UniProt O95299)	-0.174	0.146	0.0576	0.129
NELFCD C582 (UniProt Q8IXH7)	-0.187	0.0876	-0.713	-0.105
NDUFA7 C55	0.362	0.0514	0.393	0.136
NOC2L C585 (UniProt Q9Y3T9)	0.105	0.18	0.044	0.206
NBR1 C669 (UniProt Q14596)	-0.186	-0.282	-0.247	0.135
NLN C199 (UniProt Q9BYT8)	0.0663	-0.00313	-0.185	-0.0394
NIPBL C1889 (UniProt Q6KC79)	-0.366	-0.0453	-0.0894	0.237
NDUFAB1 C140 (UniProt O14561)	0.198	-0.488	-0.264	-0.519
NOL11 C578 (UniProt Q9H8H0)	-0.122	0.0772	0.00757	0.074

Look-ups from the entries so far:
In log2 mean competition ratio ([2]; 50 µM), NCAPH2 C309 (UniProt Q6IBW4) is listed with -0.037
In log2 mean competition ratio ([2]; 200 µM), NDC80 C528 (UniProt O14777) is listed with -0.244
